Some of the results follow. Results with a measured potency or affinity are listed apart. Entries without a call are filed as inconclusive in the source.

A short description of the assay: Drosophila SCA1 whole organism dose response for polyglutamine toxicity reduction (AID 1595). Conditions: Drosophila SCA1 polyglutamine model, at 1 µM, stronger effect = higher value.
As for `Cc1cc(C2CCCCC2)n(O)c(=O)c1`, the suppression of toxicity turned out to be 0.

With `c1coc(CNc2ncnc3nc[nH]c23)c1`, the suppression of toxicity turned out to be 1.43.

For the compound `CC(=O)OCC(=O)[C@@]1(O)CCC2C3CCC4=CC(=O)CC[C@]4(C)C3C(=O)C[C@@]21C` (some centres undefined), the suppression of toxicity amounted to 1.43.

As to `CC(C)[C@@H](C)/C=C/[C@@H](C)C1CC[C@H]2/C(=C/C=C3\C[C@@H](O)CC[C@@H]3C)CCC[C@]12C` (some centres undefined), the suppression of toxicity was found to be 0.

As to `NS(=O)(=O)c1cc2c(cc1Cl)NC(CSCc1ccccc1)=NS2(=O)=O`, the suppression of toxicity was found to be 5.71.

As to `COc1cc(C)c2c(=O)cc(-c3ccccc3)oc2c1`, the suppression of toxicity came out at 2.86.

Regarding `CSCCC(NC=O)C(=O)NC(Cc1ccccc1)C(=O)O` (centres undefined), the suppression of toxicity came out at 2.86.

The compound `Nc1ccn(C2O[C@H](CO)[C@@H](O)[C@H]2O)c(=O)n1` (some centres undefined) returned a suppression of toxicity of 15.7.

In the case of `CCN1CCCC1CNC(=O)c1cc(S(N)(=O)=O)ccc1OC` (centres undefined), the suppression of toxicity is 10.

Consider `CC(C)NCC(O)c1cc(O)cc(O)c1` (centres undefined), for which the suppression of toxicity came to 10.

With `COc1c2occc2cc2ccc(=O)oc12`, the suppression of toxicity came to 0.

Regarding `CN1CCCN=C1COC(=O)C(O)(c1ccccc1)C1CCCCC1` (centres undefined), the suppression of toxicity was 0.

Consider `CCN1CCN(C(=O)NC(C(=O)NC2C(=O)N3C(C(=O)O)=C(CSc4nnnn4C)CSC23)c2ccc(O)cc2)C(=O)C1=O` (centres undefined), for which the suppression of toxicity came to 4.29.

Turning to `O=C(OCC(O)CO)c1ccccc1Nc1ccnc2cc(Cl)ccc12` (centres undefined), the suppression of toxicity amounted to 1.43.

As to `O=C(O)P(=O)(O)O`, the suppression of toxicity came to 0.

`CCCCCCCCCCCCCCCCCC(=O)OC(CC(=O)O)C[N+](C)(C)C` (centres undefined) returned a suppression of toxicity of 5.71.

`COc1ccc2cc3[n+](cc2c1OC)CCc1cc2c(cc1-3)OCO2`: the suppression of toxicity is 2.86.

In the case of `COc1ccc2[nH]cc(CCNC(C)=O)c2c1`, the suppression of toxicity worked out at 2.85.

For `Cc1cc(/C=C/c2ccc3cc(N(C)C)ccc3[n+]2C)c(C)n1-c1ccccc1`, the suppression of toxicity was 4.29.

Values taken from PubChem BioAssay.
